Data: PubChem BioAssay AID220 (DTP/NCI, 2004)
The list does not hold the whole screen: it covers a few groups of compounds. Other doses and runs of a compound may be missing. T/C is the treated group as % of the vehicle group. Schedule codes are those of the source, taken here to give the interval after Q, in days (D) or hours (H), and the number of doses after X. Some T/C values carry the count of animals alive at the toxicity check; where neither a count nor a note follows, no animal had died by that day. Some entries give survivors of the animals treated and no T/C: the source files T/C as zero there, which appears to mark a toxic dose or a test without result, not a measured value. Counts of survivors are from the toxicity check, whose day is not always given; animals may have died later.

Tested on: CD8F1 mice, subcutaneous mammary adenocarcinoma, T/C%
Assay: NCI In Vivo Anticancer Drug Screen. Data for tumor model Mammary Adenocarcinoma CD8F1 (subcutaneous) in CD8F1
Details: higher T/C = larger tumour
Method: The antitumor activity of compounds was measured in mice bearing transplantable tumors. Survival or tumor size were measured and the results are expressed as the measurement made in the treated group (T) divided by the measurement made in the vehicle treated control group (C). The tumor model used in this assay is Mammary Adenocarcinoma CD8F1 (subcutaneous) in CD8F1

[1] = T/C endpoint: median tumor weight (est.), dose: 12.5 mg/kg/injection, schedule: Q07DX005 (ip), vehicle: saline with Tween-80, evaluated on day 30
[2] = T/C endpoint: median tumor weight (est.), dose: 25.0 mg/kg/injection, schedule: Q07DX005 (ip), vehicle: saline with Tween-80, evaluated on day 30
[3] = T/C endpoint: median tumor weight (est.), dose: 50.0 mg/kg/injection, schedule: Q07DX005 (ip), vehicle: saline with Tween-80, evaluated on day 30
[4] = T/C endpoint: median tumor weight (est.), dose: 25.0 mg/kg/injection, schedule: Q07DX005 (ip), vehicle: Klucel (hydroxypropylcellulose) (HPC), evaluated on day 30
[5] = T/C endpoint: median tumor weight (est.), dose: 50.0 mg/kg/injection, schedule: Q07DX005 (ip), vehicle: Klucel (hydroxypropylcellulose) (HPC), evaluated on day 30
[6] = T/C endpoint: median tumor weight (est.), dose: 100.0 mg/kg/injection, schedule: Q07DX005 (ip), vehicle: Klucel (hydroxypropylcellulose) (HPC), evaluated on day 30

For NC(=O)c1[nH]cnc1/N=N\N(CCCl)CCCl, the T/C (T/C endpoint: mean tumor weight (est.), dose: 100.0 mg/kg/injection, schedule: Q07DX005 (ip), vehicle: saline, evaluated on day 63) was 72 % of control, the T/C (T/C endpoint: mean tumor weight (est.), dose: 200.0 mg/kg/injection, schedule: Q07DX005 (ip), vehicle: saline, evaluated on day 63) was 36 % of control [8 of 10 alive] and the T/C (T/C endpoint: mean tumor weight, dose: 12.5 mg/kg/injection, schedule: Q01DX009 (ip), vehicle: saline, evaluated on day 31) was 99 % of control. For the same compound, the T/C (T/C endpoint: mean tumor weight, dose: 25.0 mg/kg/injection, schedule: Q01DX009 (ip), vehicle: saline, evaluated on day 31) was 56 % of control, the T/C (T/C endpoint: mean tumor weight, dose: 50.0 mg/kg/injection, schedule: Q01DX009 (ip), vehicle: saline, evaluated on day 31) was 44 % of control and the T/C (T/C endpoint: mean tumor weight, dose: 100.0 mg/kg/injection, schedule: Q07DX005 (ip), vehicle: saline, evaluated on day 34) was 185 % of control. The T/C (T/C endpoint: mean tumor weight, dose: 100.0 mg/kg/injection, schedule: Q07DX005 (ip), vehicle: saline, evaluated on day 36) was 638 % of control, the T/C (T/C endpoint: mean tumor weight, dose: 200.0 mg/kg/injection, schedule: Q07DX005 (ip), vehicle: saline, evaluated on day 34) was 387 % of control and the T/C (T/C endpoint: mean tumor weight, dose: 200.0 mg/kg/injection, schedule: Q07DX005 (ip), vehicle: saline, evaluated on day 36) was 105 % of control [9 of 10 alive]. The T/C (T/C endpoint: mean tumor weight, dose: 400.0 mg/kg/injection, schedule: Q07DX005 (ip), vehicle: saline, evaluated on day 34) was 204 % of control, the T/C (T/C endpoint: mean tumor weight, dose: 400.0 mg/kg/injection, schedule: Q07DX005 (ip), vehicle: saline, evaluated on day 36) was 62 % of control [9 of 10 alive] and the T/C [1] was 152 % of control. The T/C [2] was 114 % of control, the T/C [3] was 6 % of control and the T/C (T/C endpoint: median tumor weight (est.), dose: 100.0 mg/kg/injection, schedule: Q07DX005 (ip), vehicle: saline with Tween-80, evaluated on day 30) was 12 % of control. For the same compound, the survivor count (T/C endpoint: median tumor weight (est.), dose: 200.0 mg/kg/injection, schedule: Q07DX005 (ip), vehicle: saline with Tween-80) was 4 of 10 on day 30 and the survivor count (T/C endpoint: median tumor weight (est.), dose: 400.0 mg/kg/injection, schedule: Q07DX005 (ip), vehicle: saline with Tween-80) was 0 of 10 on day 30.

C[As](C)SC1OC(CO)C(O)C(O)C1O (stereo not drawn) was tested, and the T/C (T/C endpoint: median tumor weight (est.), dose: 6.25 mg/kg/injection, schedule: Q07DX005 (ip), vehicle: saline, evaluated on day 30) was 47 % of control [9 of 10 alive on day 30], the T/C (T/C endpoint: median tumor weight (est.), dose: 12.5 mg/kg/injection, schedule: Q07DX005 (ip), vehicle: saline, evaluated on day 30) was 118 % of control and the T/C (T/C endpoint: median tumor weight (est.), dose: 25.0 mg/kg/injection, schedule: Q07DX005 (ip), vehicle: saline, evaluated on day 30) was 58 % of control [7 of 10 alive on day 30]. The T/C (T/C endpoint: median tumor weight (est.), dose: 50.0 mg/kg/injection, schedule: Q07DX005 (ip), vehicle: saline, evaluated on day 30) was 74 % of control, the survivor count (T/C endpoint: median tumor weight (est.), dose: 100.0 mg/kg/injection, schedule: Q07DX005 (ip), vehicle: saline) was 6 of 10 on day 30 and the survivor count (T/C endpoint: median tumor weight (est.), dose: 200.0 mg/kg/injection, schedule: Q07DX005 (ip), vehicle: saline) was 1 of 10 on day 30.

With ClC1CSC1 the T/C (T/C endpoint: median tumor weight change, dose: 125.0 mg/kg/injection, schedule: Q01DX001 (ip), vehicle: saline with Tween-80, evaluated on day 35) was 45 % of control [9 of 10 alive on day 35], the survivor count (T/C endpoint: median tumor weight change, dose: 250.0 mg/kg/injection, schedule: Q01DX001 (ip), vehicle: saline with Tween-80) was 4 of 10 on day 35 and the survivor count (T/C endpoint: median tumor weight change, dose: 500.0 mg/kg/injection, schedule: Q01DX001 (ip), vehicle: saline with Tween-80) was 0 of 10 on day 35. The survivor count (T/C endpoint: median tumor weight change, dose: 1000.0 mg/kg/injection, schedule: Q01DX001 (ip), vehicle: saline with Tween-80) was 0 of 10 on day 35 and the survivor count (T/C endpoint: median tumor weight change, dose: 2000.0 mg/kg/injection, schedule: Q01DX001 (ip), vehicle: saline with Tween-80) was 0 of 10 on day 35.

With CCCNC(=O)c1ccc(N(CCCl)CCCl)cc1 the T/C [4] was 124 % of control [9 of 10 alive], the T/C [5] was 161 % of control and the T/C [6] was 154 % of control [9 of 10 alive].

For CC(=O)OC(SC(OC(C)=O)C(Cl)(Cl)Cl)C(Cl)(Cl)Cl (stereo not drawn), the T/C (T/C endpoint: median tumor weight (est.), dose: 12.5 mg/kg/injection, schedule: Q07DX005 (ip), vehicle: Klucel (hydroxypropylcellulose) (HPC), evaluated on day 30) was 78 % of control, the T/C [4] was 99 % of control and the T/C [5] was 74 % of control. For the same compound, the T/C [6] was 97 % of control, the T/C (T/C endpoint: median tumor weight (est.), dose: 200.0 mg/kg/injection, schedule: Q07DX005 (ip), vehicle: Klucel (hydroxypropylcellulose) (HPC), evaluated on day 30) was 97 % of control and the T/C (T/C endpoint: median tumor weight (est.), dose: 400.0 mg/kg/injection, schedule: Q07DX005 (ip), vehicle: Klucel (hydroxypropylcellulose) (HPC), evaluated on day 30) was 98 % of control.

With Nc1cc([As]=O)ccc1O (stereo not drawn) the T/C (T/C endpoint: median tumor weight (est.), dose: 3.12 mg/kg/injection, schedule: Q07DX005 (ip), vehicle: saline with Tween-80, evaluated on day 30) was 168 % of control, the T/C (T/C endpoint: median tumor weight (est.), dose: 6.25 mg/kg/injection, schedule: Q07DX005 (ip), vehicle: saline with Tween-80, evaluated on day 30) was 153 % of control and the T/C [1] was 152 % of control. The T/C [2] was 127 % of control, the T/C [3] was 118 % of control and the survivor count (T/C endpoint: median tumor weight (est.), dose: 100.0 mg/kg/injection, schedule: Q07DX005 (ip), vehicle: saline with Tween-80) was 0 of 10 on day 30.
